Here are results for one molecule from article doi:10.1101/2021.03.26.436939.

The test has as its target T1, ^AID-FB(KI)PSPC1 (endogenous PSPC1 with knocked-in 3xFLAG-biotin-AID tag) (mouse (endogenous in mouse ESCs)) (UniProt Q8R326).
T1 sequence (chain, biotin on the biotin tag (cells expressing BirA)): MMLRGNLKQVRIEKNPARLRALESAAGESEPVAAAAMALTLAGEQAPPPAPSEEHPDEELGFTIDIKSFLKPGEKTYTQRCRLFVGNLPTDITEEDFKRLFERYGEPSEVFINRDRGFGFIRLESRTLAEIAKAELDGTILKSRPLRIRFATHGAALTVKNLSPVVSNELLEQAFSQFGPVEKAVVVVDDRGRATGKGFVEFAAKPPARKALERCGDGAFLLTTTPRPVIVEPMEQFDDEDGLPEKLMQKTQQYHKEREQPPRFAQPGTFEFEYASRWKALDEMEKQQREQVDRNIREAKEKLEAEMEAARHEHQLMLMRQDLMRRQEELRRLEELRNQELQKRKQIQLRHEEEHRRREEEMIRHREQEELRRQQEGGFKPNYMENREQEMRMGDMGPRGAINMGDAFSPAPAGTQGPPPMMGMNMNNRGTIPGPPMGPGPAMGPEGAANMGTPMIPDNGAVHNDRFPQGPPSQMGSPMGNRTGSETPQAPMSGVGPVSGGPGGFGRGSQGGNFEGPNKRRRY
In words: co-IP.

No constants are given. Whether binding was seen depends on the method and setting. Binding seen in cells or lysates may run through a third protein. Some binding calls cover weakened binding; strength is not graded here. Sequences can lack the tags named with a protein.

B1: TATA-box binding protein (TBP), endogenous (protein, UniProt P29037 1-316)
chain: MDQNNSLPPYAQGLASPQGAMTPGIPIFSPMMPYGTGLTPQPIQNTNSLSILEEQQRQQQQQQQQQQQQQAVATAAASVQQSTSQQPTQGASGQTPQLFHSQTLTTAPLPGTTPLYPSPMTPMTPITPATPASESSGIVPQLQNIVSTVNLGCKLDLKTIALRARNAEYNPKRFAAVIMRIREPRTTALIFSSGKMVCTGAKSEEQSRLAARKYARVVQKLGFPAKFLDFKIQNMVGSCDVKFPIRLEGLVLTHQQFSSYEPELFPGLIYRMIKPRIVLLIFVSGKVVLTGAKVRAEIYEAFENIYPILKGFRKTT
Take B1: the binding entry is on record as “binds”.
